Source: PMC5666884
No constants are given. Whether binding was seen depends on the method and setting. Binding seen in cells or lysates may run through a third protein.

Target: T1, activating transcription factor 4 (ATF4) (UniProt Q06507)
T1 sequence: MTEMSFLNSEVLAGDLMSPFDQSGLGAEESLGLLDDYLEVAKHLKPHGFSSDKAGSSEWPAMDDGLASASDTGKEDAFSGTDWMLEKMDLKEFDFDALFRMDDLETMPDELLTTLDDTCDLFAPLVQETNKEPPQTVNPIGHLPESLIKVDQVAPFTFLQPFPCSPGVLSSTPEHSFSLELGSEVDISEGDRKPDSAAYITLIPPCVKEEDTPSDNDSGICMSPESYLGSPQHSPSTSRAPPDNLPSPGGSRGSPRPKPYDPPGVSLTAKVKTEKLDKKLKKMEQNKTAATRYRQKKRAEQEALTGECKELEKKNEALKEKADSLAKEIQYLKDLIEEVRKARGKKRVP
Assay: co-IP; NFATc1 and ATF4 overexpressed together in C2C12 cells; lysis buffer 150 mM NaCl, 25 mM Tris-HCl, 2% Brij35, 10 mM EDTA, brief sonication; lysate incubated with 10 µg of NFATc1 antibody, ATF4 antibody or control IgG, then protein G agarose beads; immunoblot

binding: no binding
B1: nuclear factor of activated T-cells cytoplasmic 1 (NFATc1) (protein, UniProt O88942 1-717)
chain: MPNTSFPVPSKFPLGPPAAVCGSGETLRPAPPSGGTMKAAEEEHYSYVSPSVTSTLPLPTAHSALPAACHDLQTSTPGISAVPSANHPPSYGGAVDSGPSGYFLSSGNTRPNGAPTLESPRIEITSYLGLHHGSGQFFHDVEVEDVLPSCKRSPSTATLHLPSLEAYRDPSCLSPASSLSSRSCNSEASSYESNYSYPYASPQTSPWQSPCVSPKTTDPEEGFPRSLGACHLLGSPRHSPSTSPRASITEESWLGARGSRPTSPCNKRKYSLNGRQPSCSPHHSPTPSPHGSPRVSVTEDTWLGNTTQYTSSAIVAAINALTTDSTLDLGDGVPIKSRKTALEHAPSVALKVEPAGEDLGTTPPTSDFPPEEYTFQHLRKGAFCEQYLSVPQASYQWAKPKSLSPTSYMSPSLPALDWQLPSHSGPYELRIEVQPKSHHRAHYETEGSRGAVKASAGGHPIVQLHGYLENEPLTLQLFIGTADDRLLRPHAFYQVHRITGKTVSTTSHEIILSNTKVLEIPLLPENNMRAIIDCAGILKLRNSDIELRKGETDIGRKNTRVRLVFRVHIPQPNGRTLSLQVASNPIECSQRSAQELPLVEKQSTDSYPVIGGKKMVLSGHNFLQDSKVIFVEKAPDGHHVWEMEAKTDRDLCKPNSLVVEIPPFRNQRITSPAQVSFYVCNGKRKRSQYQRFTYLPANGNSVFLTLSSESELRGGFY
